Test results from article PMC5894245.
These are yes or no findings as the source states them, for the method shown. In cells and extracts the contact can be indirect. Binding can be weak; no strength is given.

The chains behind the UniProt entries cited, without tags or fusion partners. Where a name states a change or a piece, a line headed by the entry shows the natural chain unless it says otherwise. Residues count along the entry.
UniProt P05362, residues 28-532: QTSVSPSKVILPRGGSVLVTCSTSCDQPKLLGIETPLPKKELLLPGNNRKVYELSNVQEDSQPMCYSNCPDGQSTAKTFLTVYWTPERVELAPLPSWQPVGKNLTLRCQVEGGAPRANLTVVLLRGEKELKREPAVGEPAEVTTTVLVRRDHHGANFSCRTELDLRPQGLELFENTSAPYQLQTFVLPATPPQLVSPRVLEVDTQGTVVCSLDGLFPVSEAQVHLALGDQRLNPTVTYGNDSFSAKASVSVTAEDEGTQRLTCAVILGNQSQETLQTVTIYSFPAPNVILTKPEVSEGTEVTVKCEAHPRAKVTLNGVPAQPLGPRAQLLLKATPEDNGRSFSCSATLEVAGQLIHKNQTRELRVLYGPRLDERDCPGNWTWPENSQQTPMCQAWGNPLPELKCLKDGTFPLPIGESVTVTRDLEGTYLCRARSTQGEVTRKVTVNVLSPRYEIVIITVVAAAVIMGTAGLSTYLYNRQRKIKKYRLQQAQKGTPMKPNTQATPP
UniProt P14780: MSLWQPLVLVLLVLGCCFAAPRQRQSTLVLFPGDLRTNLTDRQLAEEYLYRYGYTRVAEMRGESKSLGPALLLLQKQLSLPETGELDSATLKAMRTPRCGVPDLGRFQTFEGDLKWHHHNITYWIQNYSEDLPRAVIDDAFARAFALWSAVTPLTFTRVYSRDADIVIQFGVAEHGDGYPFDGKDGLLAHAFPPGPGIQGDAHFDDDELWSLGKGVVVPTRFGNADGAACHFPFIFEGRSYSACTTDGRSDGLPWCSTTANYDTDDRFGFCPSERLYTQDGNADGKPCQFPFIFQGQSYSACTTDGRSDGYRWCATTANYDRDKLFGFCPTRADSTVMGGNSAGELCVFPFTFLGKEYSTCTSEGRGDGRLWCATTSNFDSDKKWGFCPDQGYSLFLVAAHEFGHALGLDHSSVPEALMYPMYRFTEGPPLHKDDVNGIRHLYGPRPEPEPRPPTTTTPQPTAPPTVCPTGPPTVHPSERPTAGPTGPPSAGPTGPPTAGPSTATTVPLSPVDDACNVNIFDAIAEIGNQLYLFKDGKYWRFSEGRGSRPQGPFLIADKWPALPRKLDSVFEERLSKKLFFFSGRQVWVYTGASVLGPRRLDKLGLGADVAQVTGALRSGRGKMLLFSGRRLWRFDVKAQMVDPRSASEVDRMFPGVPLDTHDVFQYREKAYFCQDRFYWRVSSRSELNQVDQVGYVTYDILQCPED

Target: Intercellular cell adhesion molecule 1 (ICAM1) (human (endogenous in M13SV1-Cre)) (UniProt P05362)
Test: co-IP; lysates of M13SV1-Cre cells (untreated, 100 ng/ml TNF-α, 10 μg/ml minocycline or both, 72 h); 1% NP-40, 50 mM Tris-HCl pH 7.5, 150 mM NaCl, 1 mM EDTA, 1 mM EGTA; ICAM1 precipitated with anti-ICAM1/CD54 (clone 11C81, 5 μg/ml) overnight at 4 °C and Protein A magnetic beads; IgG1 as control; MMP9 detected by Western blot

- binding: binds
Substance: Matrix metalloproteinase-9 (MMP9) (from UniProt P14780) (enzyme)
